# Measurements published in article PMC7862700.
# The entries are a selection whose mix differs from that of the whole data set. For part of these data: At the low end of the ranking, values are background and their order means little. The list shows a part of the results. For part of these data: The exact form of the protein is not confirmed.
# Target: T1, GABPA (UniProt Q06546)
# T1 sequence: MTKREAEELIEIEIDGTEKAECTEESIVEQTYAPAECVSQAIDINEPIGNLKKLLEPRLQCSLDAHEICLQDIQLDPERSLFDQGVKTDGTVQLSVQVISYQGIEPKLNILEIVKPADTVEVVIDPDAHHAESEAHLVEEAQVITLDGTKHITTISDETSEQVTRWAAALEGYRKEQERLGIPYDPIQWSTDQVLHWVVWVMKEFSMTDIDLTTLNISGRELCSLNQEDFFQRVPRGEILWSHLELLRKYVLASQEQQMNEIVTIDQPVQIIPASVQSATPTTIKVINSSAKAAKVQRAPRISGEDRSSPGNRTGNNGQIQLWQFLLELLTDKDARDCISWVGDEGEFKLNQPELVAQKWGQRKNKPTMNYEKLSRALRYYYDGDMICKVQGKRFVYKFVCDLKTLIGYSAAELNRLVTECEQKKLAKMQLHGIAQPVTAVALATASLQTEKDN
# Assay: DAPPL (digital affinity profiling via proximity ligation, sequencing)
# Details: 10 mM Tris-HCl pH 7.5, 50 mM NaCl, 1 mM DTT, 4% glycerol, room temperature, 30 min; GST-TFs on glutathione beads, 16-mer random dsDNA library, 0.1% …; high values mean tight binding; double strand, one strand shown; scale: fold enrichment (6-mer frequency, TF over GST control)
row,Sequence,binding signal
1,GGGGAG,0.426
2,GACACG,0.728
3,CGTGGT,0.511
4,AGAGGA,0.629
5,GTCAGC,0.748
6,AGCCAG,0.483
7,TCGTGA,0.335
8,AGGACA,0.856
9,GCGCTG,0.775
10,CGTGGC,0.911
11,GTGGGT,0.455
12,GTTCGG,0.598
13,GAGTGC,0.712
14,CAAGGG,0.899
15,TGGAGT,0.504
16,GCATAG,0.8
17,CGTGCG,0.651
18,CATGAG,0.709
19,GCGGGA,0.379
20,AGTTCA,0.935

row,Sequence,binding signal
1,GTGAAC,0.842
2,GAGATG,0.708
3,GAACGC,0.775
4,CAACGG,0.959
5,GAGCAT,0.754
6,CCGTCG,0.786
7,GAGTAG,0.505
8,CAGACA,0.896
9,AGTCGT,0.441
10,GGTCGA,0.766
11,CGTGAA,0.465
12,GCCGAG,0.683
13,CATCGG,0.681
14,GGCGAC,0.81
15,CATGTC,0.865
16,AAAGAG,0.988
17,GGATTG,0.78
18,GACTGG,0.722
19,TTGTCG,0.812

# Target: T2, ETS1 (UniProt P14921)
# T2 sequence: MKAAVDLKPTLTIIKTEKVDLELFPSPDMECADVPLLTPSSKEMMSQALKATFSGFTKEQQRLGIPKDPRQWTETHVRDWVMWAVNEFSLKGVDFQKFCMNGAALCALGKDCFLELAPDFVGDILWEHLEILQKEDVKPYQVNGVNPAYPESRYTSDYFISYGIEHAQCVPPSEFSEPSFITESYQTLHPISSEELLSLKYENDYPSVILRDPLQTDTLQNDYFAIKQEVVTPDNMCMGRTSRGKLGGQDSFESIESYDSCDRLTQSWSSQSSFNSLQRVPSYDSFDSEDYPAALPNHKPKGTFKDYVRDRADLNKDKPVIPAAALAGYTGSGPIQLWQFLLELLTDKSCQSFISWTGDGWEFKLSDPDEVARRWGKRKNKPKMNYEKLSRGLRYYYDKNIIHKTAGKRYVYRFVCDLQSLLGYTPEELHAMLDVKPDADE
# Assay: as above
# Details: 10 mM Tris-HCl pH 7.5, 50 mM NaCl, 1 mM DTT, 4% glycerol, room temperature, 30 min; GST-TFs on glutathione beads, 16-mer random dsDNA library, 0.1% …; high values mean tight binding; double strand, one strand shown; scale: fold enrichment (6-mer frequency, TF over GST control)
row,Sequence,binding signal
1,GGGGAG,0.373
2,GACACG,0.644
3,CGTGGT,0.61
4,AGAGGA,0.674
5,GTCAGC,0.685
6,AGCCAG,0.45
7,TCGTGA,0.324
8,AGGACA,0.82
9,GCGCTG,0.874
10,CGTGGC,0.927
11,GTGGGT,0.503
12,GTTCGG,0.64
13,GAGTGC,0.569
14,CAAGGG,0.882
15,TGGAGT,0.574
16,GCATAG,0.811
17,CGTGCG,0.706
18,CATGAG,0.657
19,GCGGGA,0.368
20,AGTTCA,0.902

row,Sequence,binding signal
1,GTGAAC,0.82
2,GAGATG,0.716
3,GAACGC,0.735
4,CAACGG,1.04
5,GAGCAT,0.692
6,CCGTCG,0.85
7,GAGTAG,0.483
8,CAGACA,0.891
9,AGTCGT,0.36
10,GGTCGA,0.748
11,CGTGAA,0.451
12,GCCGAG,0.659
13,CATCGG,0.662
14,GGCGAC,0.786
15,CATGTC,0.785
16,AAAGAG,0.941
17,GGATTG,0.849
18,GACTGG,0.636
19,TTGTCG,0.887

# Target: T3, SPDEF (UniProt O95238)
# T3 sequence: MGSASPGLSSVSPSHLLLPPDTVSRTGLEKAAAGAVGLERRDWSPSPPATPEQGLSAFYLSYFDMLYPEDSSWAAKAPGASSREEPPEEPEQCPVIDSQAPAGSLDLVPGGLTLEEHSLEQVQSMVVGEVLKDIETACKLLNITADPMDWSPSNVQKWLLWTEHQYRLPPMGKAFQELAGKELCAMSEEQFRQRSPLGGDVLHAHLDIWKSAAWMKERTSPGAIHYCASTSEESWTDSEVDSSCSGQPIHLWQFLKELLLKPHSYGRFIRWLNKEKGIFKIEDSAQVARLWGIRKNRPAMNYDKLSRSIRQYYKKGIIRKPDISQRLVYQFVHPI
# Assay: as above
# Details: 10 mM Tris-HCl pH 7.5, 50 mM NaCl, 1 mM DTT, 4% glycerol, room temperature, 30 min; GST-TFs on glutathione beads, 16-mer random dsDNA library, 0.1% …; high values mean tight binding; double strand, one strand shown; scale: fold enrichment (6-mer frequency, TF over GST control)
row,Sequence,binding signal
1,GGGGAG,0.378
2,GACACG,0.675
3,CGTGGT,0.554
4,AGAGGA,0.611
5,GTCAGC,0.724
6,AGCCAG,0.43
7,TCGTGA,0.313
8,AGGACA,0.87
9,GCGCTG,0.746
10,CGTGGC,0.908
11,GTGGGT,0.461
12,GTTCGG,0.612
13,GAGTGC,0.597
14,CAAGGG,0.861
15,TGGAGT,0.521
16,GCATAG,0.833
17,CGTGCG,0.567
18,CATGAG,0.654
19,GCGGGA,0.37
20,AGTTCA,0.926

row,Sequence,binding signal
1,GTGAAC,0.805
2,GAGATG,0.657
3,GAACGC,0.716
4,CAACGG,0.931
5,GAGCAT,0.793
6,CCGTCG,0.891
7,GAGTAG,0.445
8,CAGACA,0.83
9,AGTCGT,0.368
10,GGTCGA,0.794
11,CGTGAA,0.452
12,GCCGAG,0.549
13,CATCGG,0.679
14,GGCGAC,0.894
15,CATGTC,0.881
16,AAAGAG,0.866
17,GGATTG,0.86
18,GACTGG,0.648
19,TTGTCG,0.907
